# The list shows a part of the results. Most values lie at the level of the controls, where differences are scatter.
# Biological target: T1, UniProt P76038
# T1 sequence (whole entry): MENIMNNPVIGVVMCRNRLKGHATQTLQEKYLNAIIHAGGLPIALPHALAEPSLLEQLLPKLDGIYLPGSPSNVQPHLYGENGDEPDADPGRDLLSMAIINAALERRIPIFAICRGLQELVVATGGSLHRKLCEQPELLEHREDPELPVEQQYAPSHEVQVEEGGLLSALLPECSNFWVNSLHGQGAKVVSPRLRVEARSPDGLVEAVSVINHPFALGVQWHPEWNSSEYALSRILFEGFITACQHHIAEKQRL
# Assay: log2 fold change of tryptic peptide abundance, ligand vs vehicle (limited proteolysis) (log2 ratio); higher = more trypsin-susceptible (destabilized)
# Settings: peptide sequence: ILFEGFITACQHHIAEK; peptide start residue: 235; ligand concentration: 10 uM; sample: E. coli crude lysate
compound,measurement,value
CC1(C)S[C@@H]2[C@H](NC(=O)[C@H](N)c3ccccc3)C(=O)N2[C@H]1C(=O)O [ampicillin],log2 fold change,1.27

# — the supplement of paper PMC12819154, “High-throughput peptide-centric local stability assay extends protein–ligand identification to membrane proteins, tissues and bacteria” (Nature Structural & Molecular Biology, 2025)
